The other results are listed elsewhere or left out.
How the values were obtained:
Assay in all cases: log2 fold change, soluble protein after heating vs DMSO (PISA); higher = thermal stabilisation; K562 cells, 10 uM, 30 min; active = over 0.2 and 3.5 SD of the protein, either way, in both replicates (recomputed)
[1] = compound: COC1=CC=C(C=C1)CN2C=CC3=C2C=C(C=C3)C(=O)NO
Method in brief: (§1)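 Quantification of soluble protein used TMTpro 16plex LC-MS/MS, with channel sums equalised. Samples were the supernatant after 21,000xg for 90 min of pooled aliquots from K562 cells (2×10^6 cells/mL) treated with 10 μM compound for 30 min, heated for 3 min over 48°C-58°C, and extracted in PBS with 0.5% NP-40 at 4°C. Values, from duplicates, describe thermal stability against control samples on a log2 fold-change scale.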

Chains of the proteins cited; added tags and fusions are not shown. Lines headed by an entry give the natural chain unless they say otherwise; changes in a name come on top.
UniProt Q5T160: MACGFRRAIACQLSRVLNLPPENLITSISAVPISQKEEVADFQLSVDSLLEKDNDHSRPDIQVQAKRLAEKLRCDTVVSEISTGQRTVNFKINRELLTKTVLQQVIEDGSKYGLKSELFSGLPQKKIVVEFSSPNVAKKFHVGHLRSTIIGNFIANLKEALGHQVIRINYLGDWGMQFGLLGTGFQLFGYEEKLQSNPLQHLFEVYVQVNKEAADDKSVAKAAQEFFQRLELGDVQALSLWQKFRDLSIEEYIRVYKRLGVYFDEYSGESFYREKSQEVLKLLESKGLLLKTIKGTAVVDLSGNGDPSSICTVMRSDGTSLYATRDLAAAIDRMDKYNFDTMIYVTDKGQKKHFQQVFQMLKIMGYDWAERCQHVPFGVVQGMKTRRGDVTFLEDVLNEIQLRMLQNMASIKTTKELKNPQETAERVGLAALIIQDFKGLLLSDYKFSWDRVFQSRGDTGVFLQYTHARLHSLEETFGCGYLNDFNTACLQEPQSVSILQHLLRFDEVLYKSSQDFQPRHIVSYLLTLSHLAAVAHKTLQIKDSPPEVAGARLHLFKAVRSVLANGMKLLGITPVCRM
UniProt P20936: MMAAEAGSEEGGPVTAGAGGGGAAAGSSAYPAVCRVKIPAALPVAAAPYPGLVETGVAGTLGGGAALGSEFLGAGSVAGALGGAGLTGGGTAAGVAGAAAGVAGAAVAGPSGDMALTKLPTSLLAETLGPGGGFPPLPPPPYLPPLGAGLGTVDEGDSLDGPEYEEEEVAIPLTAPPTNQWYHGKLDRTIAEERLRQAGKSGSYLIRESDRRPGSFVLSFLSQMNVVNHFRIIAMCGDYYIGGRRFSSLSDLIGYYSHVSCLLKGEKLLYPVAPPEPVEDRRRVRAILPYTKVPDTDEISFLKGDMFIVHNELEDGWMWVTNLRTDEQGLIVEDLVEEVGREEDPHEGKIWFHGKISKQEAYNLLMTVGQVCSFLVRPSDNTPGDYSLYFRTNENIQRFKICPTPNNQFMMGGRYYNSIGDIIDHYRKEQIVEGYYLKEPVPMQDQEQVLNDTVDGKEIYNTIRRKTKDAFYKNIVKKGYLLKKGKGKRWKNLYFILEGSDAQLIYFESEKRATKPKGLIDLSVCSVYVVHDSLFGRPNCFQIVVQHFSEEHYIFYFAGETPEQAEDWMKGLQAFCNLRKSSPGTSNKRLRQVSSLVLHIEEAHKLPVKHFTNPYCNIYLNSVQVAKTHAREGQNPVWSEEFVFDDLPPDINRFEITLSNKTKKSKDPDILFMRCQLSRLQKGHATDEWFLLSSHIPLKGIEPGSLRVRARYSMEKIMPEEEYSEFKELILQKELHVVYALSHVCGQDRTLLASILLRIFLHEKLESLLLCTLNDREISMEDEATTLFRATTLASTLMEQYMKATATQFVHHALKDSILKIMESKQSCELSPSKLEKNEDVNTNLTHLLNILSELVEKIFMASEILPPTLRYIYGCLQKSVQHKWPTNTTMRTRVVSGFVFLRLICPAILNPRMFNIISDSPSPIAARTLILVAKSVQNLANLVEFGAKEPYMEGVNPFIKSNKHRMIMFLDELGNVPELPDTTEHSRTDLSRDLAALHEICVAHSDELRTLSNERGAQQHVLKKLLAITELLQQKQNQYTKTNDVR
UniProt P54727: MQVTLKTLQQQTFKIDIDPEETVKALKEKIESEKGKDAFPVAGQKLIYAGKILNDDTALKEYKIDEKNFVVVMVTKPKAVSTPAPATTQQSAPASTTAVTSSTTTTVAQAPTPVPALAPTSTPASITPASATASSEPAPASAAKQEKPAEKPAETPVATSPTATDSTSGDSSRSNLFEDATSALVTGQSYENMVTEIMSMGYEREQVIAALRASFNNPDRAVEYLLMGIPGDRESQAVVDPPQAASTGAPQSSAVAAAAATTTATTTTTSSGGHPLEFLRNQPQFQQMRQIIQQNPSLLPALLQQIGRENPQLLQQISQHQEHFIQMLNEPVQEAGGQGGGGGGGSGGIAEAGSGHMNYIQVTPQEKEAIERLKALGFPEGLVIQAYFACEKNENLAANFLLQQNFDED
UniProt Q15276: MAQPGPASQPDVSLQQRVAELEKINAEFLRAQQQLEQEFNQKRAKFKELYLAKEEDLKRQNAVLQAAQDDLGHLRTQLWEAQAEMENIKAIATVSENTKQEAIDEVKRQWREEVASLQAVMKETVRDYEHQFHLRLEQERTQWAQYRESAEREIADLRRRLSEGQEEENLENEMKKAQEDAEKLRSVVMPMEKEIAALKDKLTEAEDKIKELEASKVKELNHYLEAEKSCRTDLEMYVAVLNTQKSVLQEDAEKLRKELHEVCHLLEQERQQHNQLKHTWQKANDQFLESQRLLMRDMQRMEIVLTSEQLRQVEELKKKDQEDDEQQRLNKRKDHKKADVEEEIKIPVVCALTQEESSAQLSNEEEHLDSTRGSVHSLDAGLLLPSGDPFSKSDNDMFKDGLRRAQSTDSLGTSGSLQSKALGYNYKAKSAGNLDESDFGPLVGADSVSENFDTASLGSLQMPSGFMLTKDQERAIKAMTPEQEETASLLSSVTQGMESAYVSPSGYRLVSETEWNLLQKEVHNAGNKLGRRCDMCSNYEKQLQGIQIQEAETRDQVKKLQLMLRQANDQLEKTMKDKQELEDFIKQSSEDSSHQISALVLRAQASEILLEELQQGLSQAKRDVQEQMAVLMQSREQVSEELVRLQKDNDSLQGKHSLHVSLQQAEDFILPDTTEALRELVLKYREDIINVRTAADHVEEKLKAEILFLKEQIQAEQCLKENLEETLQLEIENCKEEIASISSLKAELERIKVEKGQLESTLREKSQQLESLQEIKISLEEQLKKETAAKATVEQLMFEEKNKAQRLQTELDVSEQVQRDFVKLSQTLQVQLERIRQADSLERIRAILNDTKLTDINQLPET
UniProt Q96E17: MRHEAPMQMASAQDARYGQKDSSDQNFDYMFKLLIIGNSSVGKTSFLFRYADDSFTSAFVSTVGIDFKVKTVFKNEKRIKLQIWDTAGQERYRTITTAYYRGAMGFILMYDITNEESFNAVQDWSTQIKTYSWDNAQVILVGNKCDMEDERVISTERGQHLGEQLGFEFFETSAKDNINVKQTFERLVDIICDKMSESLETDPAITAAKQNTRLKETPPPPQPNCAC
UniProt Q15042: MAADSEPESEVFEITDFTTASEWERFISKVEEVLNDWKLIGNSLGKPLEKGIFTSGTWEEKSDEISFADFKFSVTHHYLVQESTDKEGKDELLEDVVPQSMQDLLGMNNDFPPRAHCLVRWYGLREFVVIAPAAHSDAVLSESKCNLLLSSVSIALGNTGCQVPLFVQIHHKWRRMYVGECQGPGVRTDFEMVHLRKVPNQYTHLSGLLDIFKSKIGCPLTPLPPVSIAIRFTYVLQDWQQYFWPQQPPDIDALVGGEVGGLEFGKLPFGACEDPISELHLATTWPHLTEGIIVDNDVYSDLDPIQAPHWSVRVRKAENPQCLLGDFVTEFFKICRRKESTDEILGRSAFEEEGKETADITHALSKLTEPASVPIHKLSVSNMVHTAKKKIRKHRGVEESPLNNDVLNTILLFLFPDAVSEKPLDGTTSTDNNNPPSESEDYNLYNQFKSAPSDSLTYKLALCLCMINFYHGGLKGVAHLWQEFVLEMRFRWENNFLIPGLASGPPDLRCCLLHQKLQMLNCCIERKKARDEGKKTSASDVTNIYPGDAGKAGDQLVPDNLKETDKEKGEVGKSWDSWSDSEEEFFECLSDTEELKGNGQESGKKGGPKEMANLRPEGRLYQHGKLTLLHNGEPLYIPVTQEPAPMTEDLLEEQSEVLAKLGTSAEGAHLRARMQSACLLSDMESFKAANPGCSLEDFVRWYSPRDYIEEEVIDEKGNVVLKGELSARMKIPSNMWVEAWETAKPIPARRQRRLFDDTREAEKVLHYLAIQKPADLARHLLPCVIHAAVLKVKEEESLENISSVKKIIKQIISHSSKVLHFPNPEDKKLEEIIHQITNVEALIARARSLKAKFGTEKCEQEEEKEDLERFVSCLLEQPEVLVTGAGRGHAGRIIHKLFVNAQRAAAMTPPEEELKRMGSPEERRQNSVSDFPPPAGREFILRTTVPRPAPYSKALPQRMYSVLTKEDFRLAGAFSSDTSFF
UniProt P98179: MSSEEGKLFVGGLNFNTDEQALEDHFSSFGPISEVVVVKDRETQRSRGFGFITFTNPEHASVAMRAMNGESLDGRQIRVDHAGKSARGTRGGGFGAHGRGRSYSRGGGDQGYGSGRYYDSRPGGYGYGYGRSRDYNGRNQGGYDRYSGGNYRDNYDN
UniProt Q96EV2: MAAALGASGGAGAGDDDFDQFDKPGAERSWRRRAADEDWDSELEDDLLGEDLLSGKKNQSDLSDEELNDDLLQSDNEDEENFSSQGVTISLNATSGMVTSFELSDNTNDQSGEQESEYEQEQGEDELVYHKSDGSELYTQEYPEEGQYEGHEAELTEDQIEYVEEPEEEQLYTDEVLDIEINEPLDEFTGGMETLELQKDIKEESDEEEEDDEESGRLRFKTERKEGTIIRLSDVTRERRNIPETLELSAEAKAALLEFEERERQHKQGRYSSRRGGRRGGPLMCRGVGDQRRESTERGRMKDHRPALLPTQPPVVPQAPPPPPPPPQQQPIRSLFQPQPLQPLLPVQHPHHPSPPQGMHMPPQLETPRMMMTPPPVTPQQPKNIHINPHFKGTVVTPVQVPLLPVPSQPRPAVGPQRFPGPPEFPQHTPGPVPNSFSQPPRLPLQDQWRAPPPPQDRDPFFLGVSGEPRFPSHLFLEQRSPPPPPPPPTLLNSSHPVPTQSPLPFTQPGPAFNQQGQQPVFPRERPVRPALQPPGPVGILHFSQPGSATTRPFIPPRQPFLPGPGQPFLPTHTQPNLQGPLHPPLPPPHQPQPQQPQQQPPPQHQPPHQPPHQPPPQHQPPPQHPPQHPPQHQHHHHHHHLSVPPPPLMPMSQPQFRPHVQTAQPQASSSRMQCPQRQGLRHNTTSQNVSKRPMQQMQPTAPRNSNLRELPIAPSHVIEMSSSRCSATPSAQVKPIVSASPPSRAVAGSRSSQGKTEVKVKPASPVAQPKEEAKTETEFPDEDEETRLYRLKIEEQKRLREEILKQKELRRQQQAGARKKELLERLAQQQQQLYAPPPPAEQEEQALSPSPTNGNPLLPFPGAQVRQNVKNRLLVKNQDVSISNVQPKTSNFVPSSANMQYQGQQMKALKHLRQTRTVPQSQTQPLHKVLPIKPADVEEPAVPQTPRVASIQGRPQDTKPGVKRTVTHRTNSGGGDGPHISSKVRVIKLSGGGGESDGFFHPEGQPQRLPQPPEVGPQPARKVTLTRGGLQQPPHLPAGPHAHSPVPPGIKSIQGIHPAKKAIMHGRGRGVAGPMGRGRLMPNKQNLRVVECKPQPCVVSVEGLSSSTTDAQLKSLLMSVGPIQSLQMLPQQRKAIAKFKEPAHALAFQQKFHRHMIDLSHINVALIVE
UniProt Q969Q5: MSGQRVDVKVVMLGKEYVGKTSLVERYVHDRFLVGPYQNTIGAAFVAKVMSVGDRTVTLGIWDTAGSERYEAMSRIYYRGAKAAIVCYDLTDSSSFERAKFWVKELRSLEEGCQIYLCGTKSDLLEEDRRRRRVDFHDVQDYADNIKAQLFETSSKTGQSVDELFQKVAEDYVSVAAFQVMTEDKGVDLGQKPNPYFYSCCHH
UniProt O75943: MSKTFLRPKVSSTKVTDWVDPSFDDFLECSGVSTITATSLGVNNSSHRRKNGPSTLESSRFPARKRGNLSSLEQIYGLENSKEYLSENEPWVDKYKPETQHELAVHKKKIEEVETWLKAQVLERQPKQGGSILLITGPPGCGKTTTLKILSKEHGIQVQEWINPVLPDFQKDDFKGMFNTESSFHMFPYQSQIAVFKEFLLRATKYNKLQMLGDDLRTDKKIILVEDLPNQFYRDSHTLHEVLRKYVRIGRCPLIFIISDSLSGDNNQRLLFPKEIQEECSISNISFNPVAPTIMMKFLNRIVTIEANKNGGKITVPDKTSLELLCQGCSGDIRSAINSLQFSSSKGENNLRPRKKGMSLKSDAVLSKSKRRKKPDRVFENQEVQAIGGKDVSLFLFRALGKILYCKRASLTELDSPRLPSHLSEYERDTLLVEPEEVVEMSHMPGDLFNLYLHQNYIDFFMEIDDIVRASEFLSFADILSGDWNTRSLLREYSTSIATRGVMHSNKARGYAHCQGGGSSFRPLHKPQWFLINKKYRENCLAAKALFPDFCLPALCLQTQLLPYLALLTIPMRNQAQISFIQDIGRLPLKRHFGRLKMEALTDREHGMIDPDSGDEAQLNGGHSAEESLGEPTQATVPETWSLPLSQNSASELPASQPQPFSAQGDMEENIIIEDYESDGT
UniProt Q5HYI8: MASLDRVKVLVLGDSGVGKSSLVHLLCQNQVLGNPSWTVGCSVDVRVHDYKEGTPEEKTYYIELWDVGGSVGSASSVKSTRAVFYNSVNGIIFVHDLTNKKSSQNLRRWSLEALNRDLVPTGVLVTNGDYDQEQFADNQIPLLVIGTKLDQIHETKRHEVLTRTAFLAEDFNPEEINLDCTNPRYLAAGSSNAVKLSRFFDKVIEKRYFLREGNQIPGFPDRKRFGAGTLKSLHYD

filanesib = compound: CON(C)C(=O)N1N=C(c2cc(F)ccc2F)S[C@@]1(CCCN)c1ccccc1 [filanesib]
Method in brief: as §1

zotarolimus = compound: CO[C@H]1C[C@@H]2CC[C@@H](C)[C@@](O)(O2)C(=O)C(=O)N2CCCC[C@H]2C(=O)O[C@H]([C@H](C)C[C@@H]2CC[C@H](n3cnnn3)[C@H](OC)C2)CC(=O)[C@H](C)/C=C(\C)[C@@H](O)[C@@H](OC)C(=O)[C@H](C)C[C@H](C)/C=C/C=C/C=C/1C [zotarolimus]
Method in brief: as §1

idasanutlin = compound: COc1cc(C(=O)O)ccc1NC(=O)[C@@H]1N[C@@H](CC(C)(C)C)[C@](C#N)(c2ccc(Cl)cc2F)[C@H]1c1cccc(Cl)c1F [idasanutlin]
Method in brief: as §1

alisertib = compound: COc1cc(Nc2ncc3c(n2)-c2ccc(Cl)cc2C(c2c(F)cccc2OC)=NC3)ccc1C(=O)O [alisertib]
Method in brief: as §1

[2] = compound: COc1cc2nc(-c3cc(F)ccc3O)nc(N[C@@H]3CNC[C@H]3C(C)(C)O)c2cc1OC
Method in brief: as §1

gefitinib = compound: COc1cc2ncnc(Nc3ccc(F)c(Cl)c3)c2cc1OCCCN1CCOCC1 [gefitinib]
Method in brief: as §1

[3] = compound: COc1cccc2cc(-c3nc([C@H]4CC[C@H](C(=O)O)CC4)n4ncnc(N)c34)[nH]c12
Method in brief: as §1

lapatinib = compound: CS(=O)(=O)CCNCc1ccc(-c2ccc3ncnc(Nc4ccc(OCc5cccc(F)c5)c(Cl)c4)c3c2)o1 [lapatinib]
Method in brief: as §1

pictilisib = compound: CS(=O)(=O)N1CCN(Cc2cc3nc(-c4cccc5[nH]ncc45)nc(N4CCOCC4)c3s2)CC1 [pictilisib]
Method in brief: as §1

Measured: log2 fold change

RABGAP1L isoform 5 (UniProt Q5R372)
inactive: [1] 0.117 | filanesib 0.108 | zotarolimus -0.008 | idasanutlin 0.05 | alisertib -0.071 | [2] 0.065 | gefitinib -0.097 | [3] 0.007 | lapatinib -0.027

RAB11A (UniProt P62491)
inactive: [1] 0.096 | filanesib 0.009 | zotarolimus -0.052 | idasanutlin 0.022 | alisertib -0.031 | [2] 0.079 | gefitinib -0.017 | [3] -0.025 | lapatinib -0.112 | pictilisib 0.157

RAB6B (UniProt Q9NRW1)
inactive: [1] -0.004 | filanesib -0.091 | zotarolimus -0.054 | idasanutlin -0.049 | alisertib -0.057 | [2] 0.093 | gefitinib 0.013 | [3] 0.032 | lapatinib -0.006 | pictilisib 0.044

RAB4B isoform 2 (UniProt P61018)
inactive: [1] -0.079 | filanesib 0.001 | zotarolimus 0.003 | idasanutlin -0.077 | alisertib -0.033 | [2] 0.026 | gefitinib 0.048 | [3] 0.037 | lapatinib 0.004 | pictilisib 0.057

RAB5B (UniProt P61020)
inactive: [1] 0.044 | filanesib -0.025 | zotarolimus 0.035 | idasanutlin -0.038 | alisertib -0.093 | [2] -0.035 | gefitinib -0.001 | [3] 0.061 | lapatinib 0.026 | pictilisib -0.144

RARS2 (UniProt Q5T160)
inactive: [1] 0.009 | zotarolimus 0.007 | idasanutlin -0.071 | alisertib -0.016 | [2] -0.028 | gefitinib -0.013 | [3] 0.051 | lapatinib 0.051 | pictilisib -0.031
active: filanesib -0.245

RAD50 isoform 2 (UniProt Q92878)
inactive: [1] -0.002 | filanesib 0.008 | zotarolimus 0.036 | idasanutlin -0.016 | alisertib 0 | [2] 0.002 | gefitinib 0.031 | [3] 0.007 | lapatinib -0.002 | pictilisib 0.02

RASA1 (UniProt P20936)
inactive: [1] -0.177 | filanesib -0.047 | zotarolimus 0.112 | idasanutlin -0.44 | alisertib -0.108 | [2] 0.109 | gefitinib 0.002 | [3] 0.034 | lapatinib -0.091

Quoted at random: two records from the list
RASA1 (UniProt P20936)
inactive: [1] -0.177 | filanesib -0.047 | zotarolimus 0.112 | idasanutlin -0.44 | alisertib -0.108 | [2] 0.109 | gefitinib 0.002 | [3] 0.034 | lapatinib -0.091

RAB6B (UniProt Q9NRW1)
inactive: [1] -0.004 | filanesib -0.091 | zotarolimus -0.054 | idasanutlin -0.049 | alisertib -0.057 | [2] 0.093 | gefitinib 0.013 | [3] 0.032 | lapatinib -0.006 | pictilisib 0.044

Remaining list, next part

RAD23B (UniProt P54727)
inactive: [1] -0.044 | filanesib -0.011 | zotarolimus 0.023 | idasanutlin -0.006 | alisertib -0.063 | [2] 0.007 | gefitinib 0.004 | [3] 0.062 | lapatinib -0.027 | pictilisib 0.057

RABEP1 (UniProt Q15276)
inactive: [1] -0.021 | filanesib 0.002 | zotarolimus 0.034 | idasanutlin -0.013 | alisertib -0.064 | [2] -0.012 | gefitinib 0.035 | [3] -0.003 | lapatinib -0.002 | pictilisib 0.05

RANBP2 (UniProt P49792)
inactive: filanesib -0.048 | zotarolimus 0.029 | idasanutlin -0.005 | alisertib 0.079 | [2] 0.044 | gefitinib 0.05 | [3] -0.097 | lapatinib -0.07 | pictilisib -0.002
active: [1] 0.334

RAB6D (UniProt Q53S08)
inactive: [1] 0.13 | filanesib -0.025 | zotarolimus -0.058 | idasanutlin -0.07 | alisertib 0.014 | [2] 0.159 | gefitinib 0.045 | [3] 0.057 | lapatinib -0.019 | pictilisib 0.076

RAD18 (UniProt Q9NS91)
inactive: [1] -0.086 | filanesib -0.001 | zotarolimus 0.077 | idasanutlin -0.068 | alisertib -0.064 | [2] 0.036 | gefitinib 0.086 | [3] -0.211 | lapatinib 0 | pictilisib 0.114

RALGAPA1 isoform 6 (UniProt Q6GYQ0)
inactive: [1] 0.099 | filanesib 0.103 | zotarolimus -0.01 | idasanutlin -0.188 | alisertib 0.019 | [2] 0.252 | gefitinib -0.05 | [3] 0 | lapatinib 0.039

RAB3C (UniProt Q96E17)
inactive: [1] 0.011 | filanesib -0.07 | zotarolimus -0.038 | idasanutlin 0.014 | alisertib -0.148 | [2] 0.034 | gefitinib 0.012 | [3] 0.004 | lapatinib -0.002 | pictilisib 0.059

RAB32 (UniProt Q13637)
inactive: [1] -0.12 | filanesib -0.029 | zotarolimus -0.006 | idasanutlin -0.065 | alisertib 0.014 | [2] -0.037 | gefitinib 0.02 | [3] 0.07 | lapatinib 0.038 | pictilisib -0.011

RAB3GAP1 (UniProt Q15042)
inactive: [1] 0.007 | filanesib 0.051 | zotarolimus 0.049 | idasanutlin 0.01 | alisertib -0.073 | [2] -0.042 | gefitinib 0.051 | [3] -0.099 | lapatinib -0.001 | pictilisib 0.026

RANBP9 (UniProt Q96S59)
inactive: [1] 0.012 | filanesib 0.008 | zotarolimus 0 | idasanutlin -0.029 | alisertib -0.055 | [2] 0.028 | gefitinib 0.086 | [3] -0.025 | lapatinib 0.034 | pictilisib 0.051

RBM3 (UniProt P98179)
inactive: [1] -0.034 | filanesib 0.273 | zotarolimus -0.027 | idasanutlin 0.232 | alisertib -0.131 | [2] 0.054 | gefitinib -0.108 | [3] -0.054 | lapatinib -0.109 | pictilisib 0.017

RALY (UniProt Q9UKM9)
active: idasanutlin 0.72
inactive: [1] -0.038 | filanesib 0.216 | zotarolimus 0.055 | alisertib 0.041 | [2] -0.152 | gefitinib -0.099 | [3] -0.148 | lapatinib 0.22 | pictilisib -0.02

RALGAPB (UniProt Q86X10)
inactive: [1] 0.037 | filanesib -0.075 | zotarolimus 0.078 | idasanutlin 0.057 | alisertib 0.016 | [2] 0.08 | gefitinib -0.023 | [3] -0.184 | lapatinib 0.052

RBM33 (UniProt Q96EV2)
inactive: [1] 0.134 | filanesib 0.013 | zotarolimus 0.03 | idasanutlin 0.042 | alisertib -0.031 | [2] -0.078 | gefitinib 0.035 | [3] -0.028 | lapatinib 0.008 | pictilisib -0.044

RAB43 (UniProt Q86YS6)
inactive: [1] -0.005 | filanesib 0.16 | zotarolimus -0.052 | idasanutlin -0.013 | alisertib -0.109 | [2] 0.061 | gefitinib 0.135 | [3] 0.095 | lapatinib -0.075 | pictilisib 0.076

RANBP3 (UniProt Q9H6Z4)
inactive: [1] 0.051 | filanesib -0.041 | zotarolimus 0.007 | idasanutlin -0.042 | alisertib -0.058 | [2] -0.042 | gefitinib -0.011 | [3] 0.043 | lapatinib 0.007 | pictilisib -0.016

RAP1GAP isoform 4 (UniProt P47736)
inactive: [1] -0.237 | filanesib -0.106 | zotarolimus 0.058 | idasanutlin 0.112 | alisertib 0.04 | [2] -0.152 | gefitinib 0.023 | [3] -0.183 | lapatinib 0.05 | pictilisib 0.053

RBBP7 isoform 2 (UniProt Q16576)
inactive: [1] -0.042 | filanesib -0.068 | zotarolimus 0.015 | idasanutlin -0.02 | alisertib 0.003 | [2] 0.029 | gefitinib -0.006 | [3] 0.056 | lapatinib -0.046 | pictilisib 0.011

RAB3A (UniProt P20336)
inactive: [1] 0.026 | filanesib 0.022 | zotarolimus -0.016 | idasanutlin 0.027 | alisertib -0.083 | [2] 0.047 | gefitinib 0.001 | [3] -0.051 | lapatinib 0.003 | pictilisib -0.018

RAB24 (UniProt Q969Q5)
inactive: [1] 0.09 | filanesib -0.095 | zotarolimus -0.002 | idasanutlin -0.037 | alisertib -0.036 | [2] -0.063 | gefitinib -0.027 | [3] 0.013 | lapatinib 0.002 | pictilisib 0.006

RAD17 (UniProt O75943)
inactive: [1] -0.037

RAP1B (UniProt F5GZG1)
inactive: [1] -0.064 | filanesib -0.096 | zotarolimus -0.013 | idasanutlin -0.026 | alisertib -0.114 | [2] 0.29 | gefitinib 0.007 | [3] 0.134 | lapatinib -0.126

RABL3 (UniProt Q5HYI8)
inactive: [1] -0.056 | filanesib -0.069 | zotarolimus -0.005 | idasanutlin -0.043 | alisertib -0.021 | [2] -0.013 | gefitinib -0.007 | [3] 0.033 | lapatinib 0.009 | pictilisib 0.049

Reference: the supplement of paper PMC10849652
